Among the data in paper PMC7819943, “Rice protein-binding microarrays: a tool to detect cis-acting elements near promoter regions in rice” are binding signal values, retold here.

The other results are listed elsewhere or left out.

This experiment concerns the target T1, OsSMF1 (Oryza sativa, UniProt Q6ZLB0 1-436).
T1 sequence: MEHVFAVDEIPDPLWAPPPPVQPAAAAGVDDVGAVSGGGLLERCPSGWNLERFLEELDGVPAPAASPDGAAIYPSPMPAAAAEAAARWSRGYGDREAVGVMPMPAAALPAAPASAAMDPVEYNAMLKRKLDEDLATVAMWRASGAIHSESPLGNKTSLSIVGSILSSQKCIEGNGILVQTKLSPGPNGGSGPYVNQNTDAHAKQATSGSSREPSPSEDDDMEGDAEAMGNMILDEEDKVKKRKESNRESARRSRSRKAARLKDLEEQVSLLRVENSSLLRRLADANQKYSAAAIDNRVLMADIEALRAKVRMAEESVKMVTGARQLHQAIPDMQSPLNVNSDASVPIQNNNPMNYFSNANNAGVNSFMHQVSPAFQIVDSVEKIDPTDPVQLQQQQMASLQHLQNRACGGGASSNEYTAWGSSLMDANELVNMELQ
Nature of the experiment: protein-binding microarray (RPBM); PBS, 2% BSA, 51.3 ng/ul salmon testes DNA, 50 uM zinc acetate, 200 nM TF, 25 C, 1 h; high values mean tight binding. Particulars: protein: recombinant; tags: N-terminal polyhistidine and DsRed monomer fusion (pET32a); chain copies: 2; label: CyDye5-dUTP incorporated in the synthesized complementary strand; 3' TTTTT single-stranded linker to array surface; dsDNA, one strand shown. The gist of the method:
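The binding signal is fluorescence intensity per feature, in arbitrary units, read on an Axon 4000B scanner. Polyhistidine- and DsRed-tagged transcription factors (N-terminal fusions) from E. coli BL21-CodonPlus were purified on Ni–NTA and applied at 200 nM for 1 h at 25 °C to a double-stranded, BSA-blocked custom Agilent array in buffer with 50 µM zinc acetate.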
As to “AAGCACAAACAATACAGAGATGACTCGCAGGGCGGTTGAGCGGAGTCACCTAGTGCAG”, the binding signal was 3470 fluorescence intensity (a.u.). “GCGTGGCCACATCAGCCTCCTCTCTCCCTTCCTCATCTCTCGGAGTCACCTAGTGCAG”: the binding signal is 14700 fluorescence intensity (a.u.). Consider “GATTGGCAGGAGCCATGTTACGTCGGTCCATCCCGTCCCGCGGAGTCACCTAGTGCAG”, for which the binding signal is 3760 fluorescence intensity (a.u.).

As for “GTGCCACCGTGATATTGCCATGTCAGCACACAAAGTGAATCGGAGTCACCTAGTGCAG”, the binding signal was 13000 fluorescence intensity (a.u.). As to “CACCAGGTGGAGGGTCGACTCCTTCTGGATGTTGTAGTCGCGGAGTCACCTAGTGCAG”, the binding signal is 3250 fluorescence intensity (a.u.).

As to “CGTTCTCCCTCCTCGGCGCGACGTGGACGAGATGATGACGCGGAGTCACCTAGTGCAG”, the binding signal was 4880 fluorescence intensity (a.u.). Turning to “ACTGAAGTTGTAGAATCCGGTTAGGTCTCACGTATGAGTTCGGAGTCACCTAGTGCAG”, the binding signal is 19600 fluorescence intensity (a.u.).

For the sequence “CCTTGTAGCGGCGGCGCCCTTCCACGTGCGCAGAGGCCGCCGGAGTCACCTAGTGCAG”, the binding signal was 11100 fluorescence intensity (a.u.). Turning to “GCTGATGACGTCCCTATCGGTTCTTATCTCAGTTCCTCCCCGGAGTCACCTAGTGCAG”, the binding signal was 9520 fluorescence intensity (a.u.).

As to “AGTAACCGTTGGATAGCCACGTGTGCGGCCACGATCCGGTCGGAGTCACCTAGTGCAG”, the binding signal is 13900 fluorescence intensity (a.u.).

On to “GTCTAGTATAAATCAACGCCACACCACTTGCCTAGTCATCCGGAGTCACCTAGTGCAG”, for which the binding signal was 9090 fluorescence intensity (a.u.). Turning to “TCATCTCATCTCTCCACGTCACCCGACTCCGACTCCGTGGCGGAGTCACCTAGTGCAG”, the binding signal was 16900 fluorescence intensity (a.u.).

Consider “AACAGAAACATCCTCGTCAGCCGATCTGTTCACCAGTCTCCGGAGTCACCTAGTGCAG”, for which the binding signal was 6900 fluorescence intensity (a.u.).

Regarding “TGTTTCTTGAATTCTCTTCTCCTAGTCAGATATCGCTGCCCGGAGTCACCTAGTGCAG”, the binding signal was 5270 fluorescence intensity (a.u.). “TCCCCACCTAGGTTAAAAGATACGGAAACTGCATGAGAACCGGAGTCACCTAGTGCAG”: the binding signal was 5750 fluorescence intensity (a.u.). As to “CTGGCATGACACGGCCCGACGTGCGACTGACCTCGACCTACGGAGTCACCTAGTGCAG”, the binding signal was 3150 fluorescence intensity (a.u.). Turning to “ACCTGCCAGAGGAGGATTCATCCCCGCCCCGCGCGCGCGTCGGAGTCACCTAGTGCAG”, the binding signal was 3220 fluorescence intensity (a.u.). As for “ACGCGACTGATGCGAATGGGATGAGTTCCTTTCGATGTTTCGGAGTCACCTAGTGCAG”, the binding signal was 3460 fluorescence intensity (a.u.).

For the sequence “AGTGACGCTGTGACTTGTCCATTAGCCTGCCACCTCAGATCGGAGTCACCTAGTGCAG”, the binding signal is 6880 fluorescence intensity (a.u.).

On to “ATCAAACGACCGCGCACTTTCATACACTACAGCTAGCACGCGGAGTCACCTAGTGCAG”, for which the binding signal was 7000 fluorescence intensity (a.u.). Turning to “GAAAACCGAACACACATGACTCACCGCTGCACTATCCAGTCGGAGTCACCTAGTGCAG”, the binding signal was 10200 fluorescence intensity (a.u.). Regarding “AGGGACCGATGCGATGCGGCCAGTACATATATGGGATTTCCGGAGTCACCTAGTGCAG”, the binding signal is 3710 fluorescence intensity (a.u.). “CTTATAGCAAATAGGCATTTTGGGGAGACAAATATGAATGCGGAGTCACCTAGTGCAG”: the binding signal was 3540 fluorescence intensity (a.u.). For the sequence “AAATAACCGATACTAAAATCAATGGTTAAAATGAGTCAAACGGAGTCACCTAGTGCAG”, the binding signal was 15200 fluorescence intensity (a.u.). Regarding “CGACAGCGGAACGTGAGCTCTGGGGCGACGACGGCGGCAACGGAGTCACCTAGTGCAG”, the binding signal is 46800 fluorescence intensity (a.u.). On to “TACCTTACCTGTACGGCAGGCATGCATGTTACTCCAGTAGCGGAGTCACCTAGTGCAG”, for which the binding signal was 39800 fluorescence intensity (a.u.). On to “TTGCTTGGCTGAGACGCCGAGTCATATGTCAAGATAGTACCGGAGTCACCTAGTGCAG”, for which the binding signal is 3370 fluorescence intensity (a.u.). Consider “CCGACGTGGCTCGCCACGATGCCGGCAGCGTCGTCGCTGGCGGAGTCACCTAGTGCAG”, for which the binding signal was 34500 fluorescence intensity (a.u.). Consider “TTGGACGCATGCTAATATAATTACGTGGTACTTGATGTATCGGAGTCACCTAGTGCAG”, for which the binding signal is 5440 fluorescence intensity (a.u.). Turning to “CCATGTCGCCGCCGCCGACCACCCGGACGCCCTCCGCGCGCGGAGTCACCTAGTGCAG”, the binding signal is 3260 fluorescence intensity (a.u.). For “AGTGACTAACCAAACACTTGCTAACTGTGACACTATCCCCCGGAGTCACCTAGTGCAG” the value was 5150 fluorescence intensity (a.u.).

Regarding “GAAAGAAAATACGTGCCAACGCATCTATAAATGGACAAGCCGGAGTCACCTAGTGCAG”, the binding signal was 4950 fluorescence intensity (a.u.). Take “ATAGACAGTTCAGGGTTAAAATATTTCGGTTTTGTGGTTTCGGAGTCACCTAGTGCAG”: the binding signal is 29600 fluorescence intensity (a.u.). Take “TTTCAGCTTCCATCATCACCATCACTACTATTCACTACTTCGGAGTCACCTAGTGCAG”: the binding signal is 3520 fluorescence intensity (a.u.). Regarding “TAGTGTTGCTTGCAGTCTTGTTTTGTCATTCGTGCTAATCCGGAGTCACCTAGTGCAG”, the binding signal was 3570 fluorescence intensity (a.u.). Consider “GCACACCATCAACCCAGCCTCGTCACGGAGCCATCGACGACGGAGTCACCTAGTGCAG”, for which the binding signal is 5080 fluorescence intensity (a.u.). For “AACTGGTATAAAGCAAATAGGCAATGCTGTACTGTCATTTCGGAGTCACCTAGTGCAG” the value was 3860 fluorescence intensity (a.u.); for “TGTCAATTGCACACAGGGTTCATAGTCCCGAGCGGTATCTCGGAGTCACCTAGTGCAG”, 3430 fluorescence intensity (a.u.); for “ATGAAAATAGGGATTGCTCCTTTAGGTTCGGTTGGGCCTTCGGAGTCACCTAGTGCAG”, 6340 fluorescence intensity (a.u.). Turning to “CCGCCCAAGATTGCACTTGTCCACGCCGTGCATCGAGCCACGGAGTCACCTAGTGCAG”, the binding signal was 4280 fluorescence intensity (a.u.). With “ACAGACTGACGACGTTTCATGACTGACTGTTTGACTTATCCGGAGTCACCTAGTGCAG”, the binding signal was 4390 fluorescence intensity (a.u.). As for “GCGCGGCCATCGCGGCGCACCCGGAGCCGGGATCCTACGCCGGAGTCACCTAGTGCAG”, the binding signal is 4510 fluorescence intensity (a.u.).
